Results from publication PMC10680327.
Results are given in words; binding and its absence hold for the method and conditions named. Binding seen in cells or lysates may run through a third protein. Some binding calls cover weakened binding; strength is not graded here.

The chains behind the UniProt entries cited, without tags or fusion partners.
UniProt Q03164: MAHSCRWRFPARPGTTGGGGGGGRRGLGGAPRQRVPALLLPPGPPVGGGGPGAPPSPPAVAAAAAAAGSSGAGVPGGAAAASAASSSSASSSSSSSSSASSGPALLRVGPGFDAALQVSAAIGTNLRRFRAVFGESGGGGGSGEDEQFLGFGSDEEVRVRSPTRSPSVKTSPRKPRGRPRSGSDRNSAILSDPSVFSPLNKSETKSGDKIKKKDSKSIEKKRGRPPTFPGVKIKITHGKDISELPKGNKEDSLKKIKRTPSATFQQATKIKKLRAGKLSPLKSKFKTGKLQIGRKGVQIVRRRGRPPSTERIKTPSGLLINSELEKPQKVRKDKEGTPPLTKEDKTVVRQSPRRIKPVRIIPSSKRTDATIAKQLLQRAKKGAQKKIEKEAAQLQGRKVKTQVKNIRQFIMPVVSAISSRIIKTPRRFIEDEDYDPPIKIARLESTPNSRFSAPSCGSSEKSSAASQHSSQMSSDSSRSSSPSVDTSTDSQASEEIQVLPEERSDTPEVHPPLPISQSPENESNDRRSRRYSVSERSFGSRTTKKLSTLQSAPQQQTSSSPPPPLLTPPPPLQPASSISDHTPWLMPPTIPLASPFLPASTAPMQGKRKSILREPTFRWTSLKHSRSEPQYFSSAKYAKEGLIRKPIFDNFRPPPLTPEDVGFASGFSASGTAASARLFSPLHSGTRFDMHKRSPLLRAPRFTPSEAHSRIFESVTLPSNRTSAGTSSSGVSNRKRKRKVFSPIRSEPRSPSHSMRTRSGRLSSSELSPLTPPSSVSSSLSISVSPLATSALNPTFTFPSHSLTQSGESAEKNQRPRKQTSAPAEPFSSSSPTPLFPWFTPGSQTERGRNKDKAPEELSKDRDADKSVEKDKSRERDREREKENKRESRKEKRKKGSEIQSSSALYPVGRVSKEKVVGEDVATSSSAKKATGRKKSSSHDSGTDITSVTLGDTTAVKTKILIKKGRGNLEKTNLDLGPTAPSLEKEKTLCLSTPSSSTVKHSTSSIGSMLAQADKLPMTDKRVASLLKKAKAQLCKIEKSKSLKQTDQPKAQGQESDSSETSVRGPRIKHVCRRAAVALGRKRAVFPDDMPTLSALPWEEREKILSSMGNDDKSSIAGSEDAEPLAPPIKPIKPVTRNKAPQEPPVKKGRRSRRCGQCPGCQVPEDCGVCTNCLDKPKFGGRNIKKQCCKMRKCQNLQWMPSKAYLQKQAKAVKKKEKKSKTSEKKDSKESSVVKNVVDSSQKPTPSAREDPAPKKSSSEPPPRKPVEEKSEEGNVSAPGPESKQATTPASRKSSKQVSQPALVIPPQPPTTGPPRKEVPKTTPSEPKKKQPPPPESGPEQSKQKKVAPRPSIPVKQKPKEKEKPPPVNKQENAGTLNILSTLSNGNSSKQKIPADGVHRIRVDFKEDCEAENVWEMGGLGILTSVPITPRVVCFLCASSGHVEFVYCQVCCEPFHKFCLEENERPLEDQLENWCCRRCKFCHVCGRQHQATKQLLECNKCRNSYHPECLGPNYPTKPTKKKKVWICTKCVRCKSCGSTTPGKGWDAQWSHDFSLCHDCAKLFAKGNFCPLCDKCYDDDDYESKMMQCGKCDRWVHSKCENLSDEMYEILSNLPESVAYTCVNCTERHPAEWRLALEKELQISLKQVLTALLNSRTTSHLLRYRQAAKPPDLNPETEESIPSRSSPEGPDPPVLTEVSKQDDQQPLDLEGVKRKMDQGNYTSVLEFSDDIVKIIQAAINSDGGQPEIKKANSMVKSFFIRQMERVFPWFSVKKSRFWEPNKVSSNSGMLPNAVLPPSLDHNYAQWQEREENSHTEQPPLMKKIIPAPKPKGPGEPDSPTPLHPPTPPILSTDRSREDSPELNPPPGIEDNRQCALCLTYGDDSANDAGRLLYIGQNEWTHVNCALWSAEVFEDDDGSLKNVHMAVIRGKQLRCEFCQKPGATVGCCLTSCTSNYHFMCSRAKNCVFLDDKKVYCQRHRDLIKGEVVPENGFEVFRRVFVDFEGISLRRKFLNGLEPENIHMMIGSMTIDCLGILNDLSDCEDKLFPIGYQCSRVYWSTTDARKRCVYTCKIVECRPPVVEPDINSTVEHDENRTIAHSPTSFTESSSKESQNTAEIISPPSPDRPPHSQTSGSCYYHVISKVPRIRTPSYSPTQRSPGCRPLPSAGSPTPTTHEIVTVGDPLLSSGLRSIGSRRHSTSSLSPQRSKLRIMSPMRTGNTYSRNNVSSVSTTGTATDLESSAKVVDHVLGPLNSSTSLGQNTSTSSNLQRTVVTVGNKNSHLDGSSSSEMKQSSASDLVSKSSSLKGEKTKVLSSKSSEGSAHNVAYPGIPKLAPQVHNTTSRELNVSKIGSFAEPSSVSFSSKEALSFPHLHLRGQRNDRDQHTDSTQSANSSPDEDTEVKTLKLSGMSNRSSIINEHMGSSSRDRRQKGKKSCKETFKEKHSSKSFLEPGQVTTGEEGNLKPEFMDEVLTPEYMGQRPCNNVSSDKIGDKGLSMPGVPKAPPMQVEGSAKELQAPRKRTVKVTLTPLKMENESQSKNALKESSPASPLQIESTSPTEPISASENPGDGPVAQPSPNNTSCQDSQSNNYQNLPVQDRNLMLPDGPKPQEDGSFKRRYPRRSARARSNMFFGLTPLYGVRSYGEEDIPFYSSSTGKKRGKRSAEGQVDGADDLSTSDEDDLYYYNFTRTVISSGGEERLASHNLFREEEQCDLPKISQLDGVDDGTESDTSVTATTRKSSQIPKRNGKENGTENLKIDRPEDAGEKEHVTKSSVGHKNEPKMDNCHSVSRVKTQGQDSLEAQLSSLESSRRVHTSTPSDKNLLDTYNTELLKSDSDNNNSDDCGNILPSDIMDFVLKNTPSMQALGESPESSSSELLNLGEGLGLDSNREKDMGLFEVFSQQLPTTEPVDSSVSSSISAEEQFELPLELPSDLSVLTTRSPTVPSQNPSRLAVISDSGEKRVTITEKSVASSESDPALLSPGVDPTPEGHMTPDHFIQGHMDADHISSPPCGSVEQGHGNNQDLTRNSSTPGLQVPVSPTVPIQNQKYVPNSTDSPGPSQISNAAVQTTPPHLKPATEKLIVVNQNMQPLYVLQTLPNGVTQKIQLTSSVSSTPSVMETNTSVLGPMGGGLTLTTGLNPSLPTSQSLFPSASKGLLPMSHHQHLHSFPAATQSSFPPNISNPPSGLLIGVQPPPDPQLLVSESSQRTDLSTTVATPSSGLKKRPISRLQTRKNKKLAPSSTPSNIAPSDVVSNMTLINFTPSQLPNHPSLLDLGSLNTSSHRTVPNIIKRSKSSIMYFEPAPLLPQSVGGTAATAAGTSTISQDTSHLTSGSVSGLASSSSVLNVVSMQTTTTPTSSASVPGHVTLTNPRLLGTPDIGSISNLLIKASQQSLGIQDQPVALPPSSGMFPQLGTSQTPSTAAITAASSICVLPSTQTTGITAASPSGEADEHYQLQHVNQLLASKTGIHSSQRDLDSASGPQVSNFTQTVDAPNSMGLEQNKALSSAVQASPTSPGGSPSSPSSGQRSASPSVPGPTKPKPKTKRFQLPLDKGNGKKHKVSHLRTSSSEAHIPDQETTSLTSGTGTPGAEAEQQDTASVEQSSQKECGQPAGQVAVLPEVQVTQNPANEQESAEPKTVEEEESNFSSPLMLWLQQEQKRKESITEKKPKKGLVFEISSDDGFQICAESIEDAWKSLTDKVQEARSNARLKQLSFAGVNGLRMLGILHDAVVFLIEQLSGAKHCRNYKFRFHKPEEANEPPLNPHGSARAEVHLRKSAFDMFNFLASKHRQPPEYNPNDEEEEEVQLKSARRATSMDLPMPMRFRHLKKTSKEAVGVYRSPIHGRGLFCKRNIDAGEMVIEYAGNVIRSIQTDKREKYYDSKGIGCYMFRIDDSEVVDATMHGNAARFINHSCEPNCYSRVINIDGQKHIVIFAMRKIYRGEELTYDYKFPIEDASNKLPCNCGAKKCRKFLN
UniProt P05412: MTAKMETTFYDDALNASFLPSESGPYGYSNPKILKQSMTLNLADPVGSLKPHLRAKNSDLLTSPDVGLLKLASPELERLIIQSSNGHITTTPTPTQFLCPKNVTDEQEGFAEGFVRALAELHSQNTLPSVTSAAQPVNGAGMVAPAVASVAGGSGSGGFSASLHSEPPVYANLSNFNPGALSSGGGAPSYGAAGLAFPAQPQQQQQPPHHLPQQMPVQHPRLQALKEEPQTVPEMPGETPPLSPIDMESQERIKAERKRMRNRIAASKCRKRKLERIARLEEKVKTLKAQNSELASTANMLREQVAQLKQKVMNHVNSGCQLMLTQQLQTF

Target: Histone methyltransferase MLL1/KMT2A (human (endogenous in HCT116)) (UniProt Q03164)
Assay: co-IP; HCT116 cells lysed in NP40 lysis buffer (50 mM Tris pH 7.4, 150 mM NaCl, 0.5% NP40); supernatant incubated with protein G beads and anti-MLL1 or anti-JUN antibody at 4 °C for 4 h; three washes with lysis buffer; Western blot of MLL1 or JUN

binding: binds
Substance: Transcription factor AP-1/JUN (from UniProt P05412 1-331)
